Experimental data published in patent US20200224207.
For at least one entry, the source does not settle the construct or the ends of the probe. For some assays here: Where a protein sequence is shown, tags need not be part of it.

Legend:
Experiment in all cases: activity assay
[1] = target: RecA F203W mutant (Escherichia coli) (UniProt P0A7G6); conditions: joining of DCW1-25 with exonuclease III, higher joining efficiency than wild-type RecA; 1 mM Mg acetate, 100 uM ATP, 42 C; functional assay; purified recombinant protein
Exonuclease I = target: T1, Exonuclease I (UniProt P04995); conditions: exonuclease I dose-dependently promotes joining of DCW1-10 by RecA and exonuclease III, 42 C; indirect assay; purified recombinant protein
T1 sequence (looked up, limits assumed): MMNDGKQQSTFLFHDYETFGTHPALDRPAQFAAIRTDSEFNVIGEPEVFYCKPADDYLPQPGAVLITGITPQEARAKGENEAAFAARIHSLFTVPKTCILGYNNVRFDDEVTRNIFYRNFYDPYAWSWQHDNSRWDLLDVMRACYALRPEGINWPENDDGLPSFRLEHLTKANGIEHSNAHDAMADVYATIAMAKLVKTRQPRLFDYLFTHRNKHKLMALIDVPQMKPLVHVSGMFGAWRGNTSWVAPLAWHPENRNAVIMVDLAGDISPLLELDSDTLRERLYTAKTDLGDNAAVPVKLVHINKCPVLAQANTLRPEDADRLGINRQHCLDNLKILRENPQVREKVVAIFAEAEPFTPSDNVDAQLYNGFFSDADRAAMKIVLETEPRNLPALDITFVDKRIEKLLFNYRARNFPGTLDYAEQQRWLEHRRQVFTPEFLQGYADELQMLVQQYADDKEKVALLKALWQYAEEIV

Exonuclease III = target: T2, Exonuclease III (UniProt P09030); conditions: exonuclease III 80-160 mU/uL gives 7-fragment joined body in 15 min, 20 mU/uL almost none; with RecA, 42 C; indirect assay; purified recombinant protein
T2 sequence (looked up, limits assumed): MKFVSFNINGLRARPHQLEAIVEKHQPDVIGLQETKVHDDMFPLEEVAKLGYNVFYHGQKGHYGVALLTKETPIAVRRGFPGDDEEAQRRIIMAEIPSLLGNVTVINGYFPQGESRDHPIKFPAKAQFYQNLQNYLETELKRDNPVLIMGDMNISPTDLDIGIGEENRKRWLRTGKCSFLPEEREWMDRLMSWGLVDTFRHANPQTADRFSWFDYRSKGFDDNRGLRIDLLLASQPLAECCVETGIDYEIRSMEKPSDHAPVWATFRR

UvsX (Bacteriophage T4) = UvsX (Bacteriophage T4) (UniProt P04529); conditions: 1 or 3 uM UvsX, exonuclease III 80 mU/uL and exonuclease I, 1 mM Mg acetate, 42 C; 10-fragment joined body as with RecA; promoted by UvsY (Example 25); purified recombinant protein
[2] = target: RecA wild-type (Escherichia coli) (UniProt P0A7G6); conditions: control; 10-fragment joining, exonuclease III 80 mU/uL and exonuclease I, 42 C; functional assay; purified recombinant protein

Sequence	activity on this sequence [1]	activity on this sequence (Exonuclease I)	activity on this sequence (Exonuclease III)	activity on this sequence (UvsX (Bacteriophage T4))	activity on this sequence [2]
TTCTAAAACCGTGACTGCGGATATCCCGATTGTGGGGGATGCTCGCCAGGTCCTCGAACAAATGCTTGAACTCTTGTCGCAAGAATCCGCCCATCAACCACTGGATGAGATCCGCGACTGGTGGCAGCAAATTGAACAGTGGCGCGCTCGTCAGTGCCTGAAATATGACACTCACAGTGAAAAGATTAAACCGCAGGCGGTGATCGAGACTCTTTGGCGGTTGACGAAGGGAGACGCTTACGTGACGTCCGATGTCGGGCAGCACCAGATGTTTGCTGCACTTTATTATCCATTCGACAAACCGCGTCGCTGGATCAATTCCGGTGGCCTCGGCACGATGGGTTTTGGTTTACCTGCGGCACTGGGCGTCAAAATGGCGTTGCCAGAAGAAACCGTGGTTTGCGTCACTGGCGACGGCAGTATTCAGATGAACATCCAGGAACTGTCTACCGCGTTGCAATACGAGTTGCCCGTACTGGTGGTGAATCTCAATAACCGCTATCTGGGGATGGTGAAGCAGTGGCAGGACATGATCTATTCCGGCCGTCATTCACAATCTTATATGCAATCGCTACCCGATTTCGTCCGTCT (double strand) [DCW1 (representative of DCW1-DCW7/10/25/49 fragment set)]	active	active	active		
ATATCATTGGCGTGGGCAGCTGCCCGTCGCGTGGTATGGATAAAGGCGGGGTGAACGACCTCGAATCCGTGGTCAAGTGCGTACAACGCGCCATTGACCAGGCAGAATTGATGGCAGATTGTCAGATCTCTTCGGTATATCTGGCGCTTTCTGGTAAGCACATCAGCTGCCAGAATGAAATTGGTATGGTGCCTATTTCTGAAGAAGAAGTGACGCAAGAAGATGTGGAAAACGTCGTCCATACCGCGAAATCGGTGCGTGTGCGCGATGAGCATCGTGTGCTGCATGTGATCCCGCAAGAGTATGCGATTGACTATCAGGAAGGGATCAAGAATCCGGTAGGACTTTCGGGCGTGCGGATGCAGGCAAAAGTGCACCTGATCACATGTCACAACGATATGGCGAAAAACATCGTCAAAGCGGTTGAACGTTGTGGGCTGAAAGTTGACCAACTGATATTTGCCGGACTGGCATCAAGTTATTCGGTATTGACGGAAGATGAACGTGAACTGGGTGTCTGCGTCGTCGATATCGGTGGTGGTACAATGGATATCGCCGTTTATACCGGTGGGGCATTGCGCCACACTAAGG (double strand) [DCW34 (representative of DCW34-DCW43 set)]				active	active
